Measured values reported in the supplement of paper PMC3334620.
The full ranking holds about 33,000 sequences; the median of “E-score (-0.5 to 0.5)” is about -0.0014, and the highest 2% start at about 0.25. The list shows a part of the results.

target: T1, Cad1 (UniProt P24813); assay: PBM E-score (8-mer binding enrichment) (E-score (-0.5 to 0.5)); higher = stronger / more preferred TF binding; conditions: protein concentration: 100 nM; construct: GST-full length
T1 sequence: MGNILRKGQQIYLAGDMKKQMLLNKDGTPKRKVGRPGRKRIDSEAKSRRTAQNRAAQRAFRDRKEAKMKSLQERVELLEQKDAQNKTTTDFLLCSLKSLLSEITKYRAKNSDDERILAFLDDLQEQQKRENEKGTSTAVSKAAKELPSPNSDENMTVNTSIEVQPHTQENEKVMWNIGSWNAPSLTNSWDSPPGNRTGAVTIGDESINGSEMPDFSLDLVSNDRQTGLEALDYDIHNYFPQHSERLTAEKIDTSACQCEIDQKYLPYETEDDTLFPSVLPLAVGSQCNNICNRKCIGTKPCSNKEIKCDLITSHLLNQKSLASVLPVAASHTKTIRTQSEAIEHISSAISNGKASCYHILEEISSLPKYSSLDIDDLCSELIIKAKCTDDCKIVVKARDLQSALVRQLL
In short: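 GST-tagged yeast TFs (full-length or DNA-binding domain) were made by PURExpress in vitro transcription/translation and applied at about 100-200 nM to universal all-10-mer Agilent arrays. The arrays were made double-stranded by primer extension, on fresh or once-stripped slides. Bound protein was detected with fluorescent anti-GST, and scans were normalised with masliner. Each ungapped eight-base word, pooled with its reverse complement, received an E-score (modified Wilcoxon-Mann-Whitney statistic) from the Universal PBM Analysis Suite.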

| Sequence | PBM E-score |
| --- | --- |
| ATCGACGC | 0.104 |
| CCTTAGCA | -0.06 |
| AGAACTGA | 0.164 |
| GCGATACC | -0.081 |
| TCTGGCCA | 0.129 |
| ATGGGGCG | -0.0183 |
| GGATTAAA | 0.0722 |
| GCGGTTGA | 0.101 |
| ATTTAGTA | 0.293 |
| GGCCAGAC | 0.179 |
| CGTGGTTA | 0.0164 |
| CCGCCTTA | -0.0422 |
| CCGCACGG | -0.0623 |
| ACAATGCA | 0.151 |
| CAGGTTGG | 0.0251 |
| CGAAAGCC | -0.327 |
| ATGTTCAA | -0.0453 |
| AGATTCCA | 0.217 |
| AAGTTCCT | 0.0701 |
| AGTACTAA | 0.0541 |
| AAGACACG | 0.0251 |
| AGTCCGTC | 0.082 |

| Sequence | PBM E-score |
| --- | --- |
| ACTGTTGA | -0.0584 |
| AGTATCTG | -0.0638 |
| ACGATGCA | 0.0623 |
| ATAGTAGA | 0.0175 |
| GAGGTATA | 0.0423 |
| TATATGAA | 0.196 |
| ATGTATGG | -0.0491 |
| CCCCTGAA | -0.0144 |
| AGACCCCC | -0.362 |
| ATCTATTA | 0.107 |
| AGCGCGGA | 0.149 |
| CTTTGCCC | -0.152 |
| ACGCACTA | -0.0965 |
| GCTAGTTA | -0.105 |
| AGCACGAT | 0.0518 |
| CCTTCAAG | -0.121 |
| AAGGGTAG | -0.133 |
| CATCCAAG | -0.121 |
| ACGAGCCC | -0.201 |
| GCAGAATA | 0.096 |
| CAACTCAC | 0.133 |
| ATACGGGC | -0.144 |

In another format: results already given.
CCGCCTTA
  PBM E-score: -0.0422
CCGCACGG
  PBM E-score: -0.0623

Continued.

| Sequence | PBM E-score |
| --- | --- |
| CAGTCTGG | -0.134 |
| AGGATATG | 0.0939 |
| ATTCTATG | 0.0831 |
| ATACCGAA | 0.133 |
| TGAACAAA | 0.165 |
| AGCGCGTG | 0.0725 |
| GCGGAGAC | 0.267 |
| GCCTAAAC | 0.00973 |
| ATGGCCGA | 0.00947 |
| GGCGGCAA | 0.115 |
| TCGGGTAA | -0.0573 |
| CGGCCTGC | -0.14 |
| AGTAGTGC | -0.0238 |
| GCGAAGAA | 0.125 |
| GTGTCCTA | 0.0865 |
| CGGAAGCC | -0.125 |
| AGTGGCGA | 0.106 |
| GCAACATA | -0.061 |
| GTGTCTGA | 0.109 |
| TGACACCA | -0.071 |
| ATTCCACG | -0.0585 |
| AACTTGGA | -0.0298 |

A second format for some results above.
Sequence | PBM E-score
GCGGTTGA | 0.101
ATTTAGTA | 0.293
CCGCCTTA | -0.0422
CCGCACGG | -0.0623
CGAAAGCC | -0.327
AAGTTCCT | 0.0701
AGTACTAA | 0.0541
AGTCCGTC | 0.082
ACGATGCA | 0.0623
ATAGTAGA | 0.0175
GAGGTATA | 0.0423
CCCCTGAA | -0.0144
AGACCCCC | -0.362
GCTAGTTA | -0.105
AGCACGAT | 0.0518
ATACGGGC | -0.144
AGGATATG | 0.0939
ATACCGAA | 0.133
GGCGGCAA | 0.115
AGTAGTGC | -0.0238
GCGAAGAA | 0.125
CGGAAGCC | -0.125
GCAACATA | -0.061
ATTCCACG | -0.0585

Later entries

| Sequence | PBM E-score |
| --- | --- |
| AGGCCCAC | -0.309 |
| AAGCCGAC | 0.0245 |
| CGTTCAGC | 0.165 |
| GAATACGC | 0.131 |
| ACCGTCAA | 0.0801 |
| CCACCTCC | -0.237 |
| ACTTCCGA | 0.0194 |
| AGGGCGAC | -0.112 |
| AACCGCGA | 0.287 |
| CGTCATAG | -0.114 |
| GAACATAA | 0.111 |
| TCACCGCA | -0.0361 |
| CCAGCTGG | 0.0803 |
| GGGATGAC | -0.0998 |
| ACGCTGAG | 0.00501 |
| ACTCACCA | -0.0208 |
| TAATGGAA | 0.143 |
| CGAATCAC | 0.169 |
| AAAATACC | 0.203 |
| AAGACCCC | -0.206 |
